Results published in paper PMC8274477.
These are yes or no findings as the source states them, for the method shown. Some binding calls cover weakened binding; strength is not graded here.

Amino acid sequences for entries named in this document (tags omitted). Residues count along the entry.
UniProt P15502, residues 27-786: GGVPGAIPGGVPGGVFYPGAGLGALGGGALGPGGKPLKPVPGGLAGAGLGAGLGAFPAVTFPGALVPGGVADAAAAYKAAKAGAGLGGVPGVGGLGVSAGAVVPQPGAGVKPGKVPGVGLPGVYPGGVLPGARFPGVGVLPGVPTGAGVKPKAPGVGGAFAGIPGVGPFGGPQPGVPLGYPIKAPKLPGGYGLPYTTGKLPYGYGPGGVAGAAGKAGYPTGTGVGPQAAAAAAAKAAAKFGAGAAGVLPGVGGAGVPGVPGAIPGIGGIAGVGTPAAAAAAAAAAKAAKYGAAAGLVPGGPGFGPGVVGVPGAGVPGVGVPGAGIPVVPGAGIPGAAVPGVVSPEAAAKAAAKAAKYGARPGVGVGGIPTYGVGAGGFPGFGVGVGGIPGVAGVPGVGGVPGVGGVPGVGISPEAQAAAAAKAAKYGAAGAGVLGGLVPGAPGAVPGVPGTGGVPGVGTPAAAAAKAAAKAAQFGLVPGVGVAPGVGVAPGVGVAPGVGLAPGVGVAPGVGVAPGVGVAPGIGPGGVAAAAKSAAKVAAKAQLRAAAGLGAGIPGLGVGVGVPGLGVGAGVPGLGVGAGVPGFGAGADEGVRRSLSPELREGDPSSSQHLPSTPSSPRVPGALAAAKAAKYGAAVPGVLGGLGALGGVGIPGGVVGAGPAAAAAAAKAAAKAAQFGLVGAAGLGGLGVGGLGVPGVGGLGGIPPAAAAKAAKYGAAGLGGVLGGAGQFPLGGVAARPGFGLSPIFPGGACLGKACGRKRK
UniProt Q5JSZ5: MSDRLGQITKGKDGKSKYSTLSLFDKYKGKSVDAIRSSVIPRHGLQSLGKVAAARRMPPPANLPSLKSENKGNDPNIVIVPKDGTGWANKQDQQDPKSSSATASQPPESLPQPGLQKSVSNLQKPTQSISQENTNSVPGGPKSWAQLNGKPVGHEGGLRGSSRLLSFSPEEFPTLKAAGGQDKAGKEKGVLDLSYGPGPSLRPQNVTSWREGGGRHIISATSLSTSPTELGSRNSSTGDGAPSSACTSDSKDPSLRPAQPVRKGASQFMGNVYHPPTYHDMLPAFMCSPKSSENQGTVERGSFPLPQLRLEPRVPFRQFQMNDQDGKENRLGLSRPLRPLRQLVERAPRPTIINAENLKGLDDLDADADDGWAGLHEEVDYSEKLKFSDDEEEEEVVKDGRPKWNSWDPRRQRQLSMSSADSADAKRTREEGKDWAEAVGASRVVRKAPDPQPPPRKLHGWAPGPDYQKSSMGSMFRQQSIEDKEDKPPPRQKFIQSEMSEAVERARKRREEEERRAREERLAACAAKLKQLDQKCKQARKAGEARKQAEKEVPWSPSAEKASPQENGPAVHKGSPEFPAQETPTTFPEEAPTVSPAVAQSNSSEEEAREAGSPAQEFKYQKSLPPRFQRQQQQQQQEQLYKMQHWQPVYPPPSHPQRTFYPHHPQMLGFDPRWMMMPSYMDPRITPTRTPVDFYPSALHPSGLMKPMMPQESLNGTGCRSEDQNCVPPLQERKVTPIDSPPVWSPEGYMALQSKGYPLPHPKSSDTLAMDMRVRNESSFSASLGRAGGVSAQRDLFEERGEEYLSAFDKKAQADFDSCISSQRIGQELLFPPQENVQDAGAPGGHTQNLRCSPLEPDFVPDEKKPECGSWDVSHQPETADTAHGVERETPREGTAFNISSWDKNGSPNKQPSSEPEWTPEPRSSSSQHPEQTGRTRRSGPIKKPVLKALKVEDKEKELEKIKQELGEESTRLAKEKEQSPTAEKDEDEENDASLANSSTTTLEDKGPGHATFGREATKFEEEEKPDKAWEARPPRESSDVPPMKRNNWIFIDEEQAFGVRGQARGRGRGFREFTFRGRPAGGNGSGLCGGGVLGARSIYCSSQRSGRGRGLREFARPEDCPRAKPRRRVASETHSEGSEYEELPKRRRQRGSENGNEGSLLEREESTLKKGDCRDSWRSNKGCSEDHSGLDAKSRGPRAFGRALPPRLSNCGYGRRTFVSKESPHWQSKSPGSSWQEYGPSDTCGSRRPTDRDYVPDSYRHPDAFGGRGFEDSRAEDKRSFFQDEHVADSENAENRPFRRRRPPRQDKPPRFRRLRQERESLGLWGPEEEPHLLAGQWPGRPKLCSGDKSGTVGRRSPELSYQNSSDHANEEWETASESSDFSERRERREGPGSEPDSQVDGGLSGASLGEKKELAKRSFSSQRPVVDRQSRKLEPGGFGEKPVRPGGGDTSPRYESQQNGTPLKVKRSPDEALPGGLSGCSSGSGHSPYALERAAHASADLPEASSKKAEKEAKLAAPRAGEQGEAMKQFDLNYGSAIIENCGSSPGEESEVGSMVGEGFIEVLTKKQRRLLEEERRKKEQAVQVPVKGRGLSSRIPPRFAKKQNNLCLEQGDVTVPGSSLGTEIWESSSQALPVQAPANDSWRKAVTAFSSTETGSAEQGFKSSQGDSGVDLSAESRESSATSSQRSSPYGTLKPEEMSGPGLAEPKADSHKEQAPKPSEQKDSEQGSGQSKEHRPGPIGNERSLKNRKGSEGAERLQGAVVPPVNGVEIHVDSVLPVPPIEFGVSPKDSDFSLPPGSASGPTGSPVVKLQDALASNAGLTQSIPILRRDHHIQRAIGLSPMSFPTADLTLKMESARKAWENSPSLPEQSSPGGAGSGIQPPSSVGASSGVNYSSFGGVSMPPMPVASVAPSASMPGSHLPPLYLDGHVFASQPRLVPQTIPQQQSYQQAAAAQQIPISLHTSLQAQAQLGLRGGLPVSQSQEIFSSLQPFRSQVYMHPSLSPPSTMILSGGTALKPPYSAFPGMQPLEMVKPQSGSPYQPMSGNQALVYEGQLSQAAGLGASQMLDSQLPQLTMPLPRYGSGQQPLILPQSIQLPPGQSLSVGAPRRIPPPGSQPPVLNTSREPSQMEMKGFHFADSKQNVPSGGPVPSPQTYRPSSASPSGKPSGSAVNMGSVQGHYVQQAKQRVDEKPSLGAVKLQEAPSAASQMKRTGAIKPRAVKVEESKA

Experiments:
Assay in all cases: peptide or protein array; HuProt human proteome microarray; 5 ug/5 ml biotin-labelled LUBAC or OTULIN in solution, 1 h at room temperature; Cy5-streptavidin, scanned at 635 nm; BSA as negative control; hits: Z-score >= 3 and I_(Mean_Ratio) >= 1.4; both purified
ELN (human) = ELN (human) (UniProt P15502)
Irx5 = biological target: T1, Irx5 (UniProt P78411)
T1 sequence: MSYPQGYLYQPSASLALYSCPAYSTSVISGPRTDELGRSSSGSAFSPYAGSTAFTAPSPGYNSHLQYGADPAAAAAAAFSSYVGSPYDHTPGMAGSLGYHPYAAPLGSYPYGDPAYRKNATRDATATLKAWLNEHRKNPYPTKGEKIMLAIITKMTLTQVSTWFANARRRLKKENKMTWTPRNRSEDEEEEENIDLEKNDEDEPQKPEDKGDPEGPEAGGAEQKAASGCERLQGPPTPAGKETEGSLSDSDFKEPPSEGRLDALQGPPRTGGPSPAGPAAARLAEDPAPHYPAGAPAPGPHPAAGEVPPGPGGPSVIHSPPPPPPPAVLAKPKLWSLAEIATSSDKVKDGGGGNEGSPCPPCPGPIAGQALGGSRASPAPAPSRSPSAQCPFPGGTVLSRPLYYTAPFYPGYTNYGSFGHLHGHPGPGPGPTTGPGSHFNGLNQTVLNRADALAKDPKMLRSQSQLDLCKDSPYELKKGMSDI

LONP1 (human) = biological target: T2, LONP1 (human) (UniProt P36776)
T2 sequence: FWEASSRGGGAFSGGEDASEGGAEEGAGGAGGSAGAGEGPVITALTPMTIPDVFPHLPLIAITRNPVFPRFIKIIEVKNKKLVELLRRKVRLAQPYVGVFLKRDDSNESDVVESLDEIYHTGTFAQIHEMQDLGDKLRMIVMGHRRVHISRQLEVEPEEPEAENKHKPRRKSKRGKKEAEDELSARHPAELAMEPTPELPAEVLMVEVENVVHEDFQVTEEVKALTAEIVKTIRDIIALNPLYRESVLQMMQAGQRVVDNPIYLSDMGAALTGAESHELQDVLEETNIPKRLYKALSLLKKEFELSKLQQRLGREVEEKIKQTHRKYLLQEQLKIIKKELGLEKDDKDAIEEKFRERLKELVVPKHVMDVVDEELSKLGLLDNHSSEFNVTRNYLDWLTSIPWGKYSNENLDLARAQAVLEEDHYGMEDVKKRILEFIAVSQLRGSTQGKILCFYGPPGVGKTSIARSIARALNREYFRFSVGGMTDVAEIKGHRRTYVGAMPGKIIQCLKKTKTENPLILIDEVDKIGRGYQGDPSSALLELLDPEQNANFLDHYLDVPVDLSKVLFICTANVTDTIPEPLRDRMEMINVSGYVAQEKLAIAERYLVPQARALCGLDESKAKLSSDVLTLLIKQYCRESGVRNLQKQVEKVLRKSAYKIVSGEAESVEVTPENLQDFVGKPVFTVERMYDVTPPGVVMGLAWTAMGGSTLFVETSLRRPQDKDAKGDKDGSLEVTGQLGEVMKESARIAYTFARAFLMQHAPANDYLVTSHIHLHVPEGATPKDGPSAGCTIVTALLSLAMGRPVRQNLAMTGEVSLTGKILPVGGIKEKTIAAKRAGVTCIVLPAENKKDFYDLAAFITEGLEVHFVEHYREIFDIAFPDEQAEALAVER

NFYC (human) = biological target: T3, NFYC (human) (UniProt Q13952)
T3 sequence: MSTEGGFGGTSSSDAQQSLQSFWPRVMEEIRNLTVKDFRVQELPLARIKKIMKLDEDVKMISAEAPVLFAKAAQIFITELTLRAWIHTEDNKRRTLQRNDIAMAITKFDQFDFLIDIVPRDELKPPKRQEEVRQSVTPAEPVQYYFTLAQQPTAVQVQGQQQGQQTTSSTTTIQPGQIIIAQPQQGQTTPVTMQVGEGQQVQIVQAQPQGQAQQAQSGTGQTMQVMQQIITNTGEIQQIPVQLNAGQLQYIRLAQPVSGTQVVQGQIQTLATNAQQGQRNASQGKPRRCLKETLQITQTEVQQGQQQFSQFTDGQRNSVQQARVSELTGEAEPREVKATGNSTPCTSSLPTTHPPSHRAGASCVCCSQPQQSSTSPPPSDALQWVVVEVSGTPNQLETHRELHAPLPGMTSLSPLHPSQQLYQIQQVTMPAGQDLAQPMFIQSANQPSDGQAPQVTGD

PRRC2B (human) = PRRC2B (human) (UniProt Q5JSZ5)
SSBP1 (human) = biological target: T4, SSBP1 (human) (UniProt Q04837)
T4 sequence: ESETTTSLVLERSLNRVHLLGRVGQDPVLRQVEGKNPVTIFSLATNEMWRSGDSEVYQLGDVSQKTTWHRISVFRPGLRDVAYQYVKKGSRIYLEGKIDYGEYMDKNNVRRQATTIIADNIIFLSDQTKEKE

binding (ELN (human)) | binding (Irx5) | binding (LONP1 (human)) | binding (NFYC (human)) | binding (PRRC2B (human)) | binding (SSBP1 (human)) | Substance
binds | binds | binds | binds | binds | binds | OTULIN (OTU deubiquitinase with linear linkage specificity, FAM105B), His-tagged, biotin-labelled (from UniProt Q96BN8 1-352) (enzyme)
binds | binds | binds | binds | binds | binds | linear ubiquitin chain assembly complex (LUBAC), purified as HIS-tagged HOIP with the subunit HOIL-1, biotin-labelled (from UniProt Q96EP0 1-1072; Q9BYM8 1-510)
